Measured values: the supplement of paper PMC4256282, “Profound Activity of the Anti-cancer Drug Bortezomib against Echinococcus multilocularis Metacestodes Identifies the Proteasome as a Novel Drug Target for Cestodes” (PLoS Neglected Tropical Diseases, 2014)
Where a name gives a salt, the structure may show the parent alone. The list shows a part of the results. Repeats are few or missing, and single values can be far off.

The compounds below were run on Echinococcus multilocularis metacestodes (assay: vesicle damage (PGI release) relative to positive control DB1127 at 20 µM, DMSO subtracted; higher = more parasite damage). Conditions: treatment time 5 days.

| SMILES | vesicle damage [%] |
| --- | --- |
| CNC(=O)CN(CCN(CCN(CC(=O)[O-])CC(=O)NC)CC(=O)[O-])CC(=O)[O-].[Gd+3] [Gadodiamide] | -13 |
| C[C@]12CC[C@@H]3c4ccc(O)cc4CC[C@H]3[C@@H]1CCC2=O [Estrone] | 0.898 |
| COc1cc2c(cc1O)CC[C@@H]1[C@@H]2CC[C@]2(C)[C@@H](O)CC[C@@H]12 [2-Methoxyestradiol] | -0.722 |
| CCCNC(C)C(=O)Nc1ccccc1C (stereo not drawn) [Prilocaine] | -2.85 |
| CCCc1nc2c(C)cc(-c3nc4ccccc4n3C)cc2n1Cc1ccc(-c2ccccc2C(=O)O)cc1 [Telmisartan] | -12.5 |
| C#C[C@]1(O)CC[C@H]2[C@@H]3CCc4cc(OC)ccc4[C@H]3CC[C@@]21C [Mestranol] | -0.416 |
| COc1ccc2cccc(CCNC(C)=O)c2c1 [Agomelatine] | 0.123 |
| CN1CCN2c3ccccc3Cc3ccccc3C2C1 (stereo not drawn) [Mianserin hydrochloride] | -8.85 |
| OC[C@H]1OC(O)[C@H](O)[C@@H](O)[C@@H]1O (stereo partly drawn) [Dextrose] | 0.219 |
| CC(=O)SCC(Cc1ccccc1)C(=O)NCC(=O)OCc1ccccc1 (stereo not drawn) [Racecadotril] | -0.491 |
| CN(C/C=C/C#CC(C)(C)C)Cc1cccc2ccccc12 [Terbinafine hydrochloride] | 0.946 |
| O=C(O)/C=C/c1ccc(Cn2ccnc2)cc1 [Ozagrel] | -2.11 |
| CN(C)CCOc1ccc(/C(=C(/CCCl)c2ccccc2)c2ccccc2)cc1 [Toremifene Citrate] | 17.5 |
| O=C1Cc2cc(CCN3CCN(c4nsc5ccccc45)CC3)c(Cl)cc2N1 [Ziprasidone hydrochloride] | 4.36 |
| CCOC(=O)O[C@]1(C(=O)OCCl)CC[C@H]2[C@@H]3CCC4=CC(=O)C=C[C@]4(C)[C@H]3[C@@H](O)C[C@@]21C [Loteprednol Etabonate] | -1.1 |
| COc1cnc(NS(=O)(=O)c2ccc(N)cc2)nc1 [Sulfameter] | -1.36 |
| CC(C)c1nc(CN(C)C(=O)N[C@H](C(=O)N[C@@H](Cc2ccccc2)C[C@H](O)[C@H](Cc2ccccc2)NC(=O)OCc2cncs2)C(C)C)cs1 [Ritonavir] | 5.58 |
| CC[C@H]1OC(=O)[C@H](C)[C@@H](O[C@H]2C[C@@](C)(OC)[C@@H](O)[C@H](C)O2)[C@H](C)[C@@H](O[C@@H]2O[C@H](C)C[C@H](N(C)C)[C@H]2O)[C@](C)(OC)C[C@@H](C)C(=O)[C@H](C)[C@@H](O)[C@]1(C)O [Clarithromycin] | 1.01 |
| CO[C@H]1/C=C/O[C@@]2(C)Oc3c(C)c(O)c4c(c3C2=O)C2=NC3(CCN(CC(C)C)CC3)NC2=C(NC(=O)/C(C)=C\C=C\[C@H](C)[C@H](O)[C@@H](C)[C@@H](O)[C@@H](C)[C@H](OC(C)=O)[C@@H]1C)C4=O [Rifabutin] | -1.04 |

| SMILES | vesicle damage [%] |
| --- | --- |
| CCC(=O)NCC[C@@H]1CCc2ccc3c(c21)CCO3 [Ramelteon] | -3.37 |
| CC(=O)OCC(=O)[C@@]12N=C(C)O[C@@H]1C[C@H]1[C@@H]3CCC4=CC(=O)C=C[C@]4(C)[C@H]3[C@@H](O)C[C@@]12C [Deflazacort] | -13.4 |
| Oc1c(Cl)cc(Cl)c2cccnc12 [Chloroxine] | -7.09 |
| CCC[C@H](N[C@@H](C)C(=O)N1[C@H](C(=O)O)C[C@@H]2CCCC[C@@H]21)C(=O)OCC [Perindopril Erbumine] | -2.32 |
| COc1ccccc1OCC(O)COC(N)=O (stereo not drawn) [Methocarbamol] | -8.21 |
| C[C@]12C=CC(=O)N[C@@H]1CC[C@@H]1[C@@H]2CC[C@]2(C)[C@@H](C(=O)Nc3cc(C(F)(F)F)ccc3C(F)(F)F)CC[C@@H]12 [Dutasteride] | -5 |
| COc1ccccc1OCC(O)CN1CCN(CC(=O)Nc2c(C)cccc2C)CC1 (stereo not drawn) [Ranolazine dihydrochloride] | -5.33 |
| Cc1nc2n(c(=O)c1CCN1CCC(c3noc4cc(F)ccc34)CC1)CCCC2 [Risperidone] | -4.58 |
| CC1=NN(c2ccc(C)c(C)c2)C(=O)/C1=N\Nc1cccc(-c2cccc(C(=O)O)c2)c1O [Eltrombopag] | 16.3 |
| CCOC(=O)[C@H](CCc1ccccc1)N[C@@H](C)C(=O)N1[C@H](C(=O)O)C[C@@H]2CCC[C@@H]21 [Ramipril] | -12.2 |
| O=P(O)(O)C(O)(Cn1ccnc1)P(=O)(O)O [Zoledronic Acid] | -0.295 |
| NCCc1ccc(O)c(O)c1 [Dopamine hydrochloride] | 0.815 |
| O=NN(CCCl)C(=O)NC1CCCCC1 [Lomustine] | -9.19 |
| CCCC(CCC)C(=O)O [Divalproex sodium] | -1.42 |
| CS(=O)(=O)OCCCCOS(C)(=O)=O [Busulfan] | -1.6 |
| c1ccc([C@H]2CN3CCSC3=N2)cc1 [Levamisole Hydrochloride] | -10.5 |
| C[C@]12CC[C@@H]3c4ccc(O)cc4C[C@@H](CCCCCCCCC[S+]([O-])CCCC(F)(F)C(F)(F)F)[C@H]3[C@@H]1CC[C@@H]2O (stereo partly drawn) [Fulvestrant] | -0.361 |
| O=c1n(CCCN2CCN(c3cccc(Cl)c3)CC2)nc2ccccn12 [Trazodone hydrochloride] | 2.01 |
| CCCCNc1cc(C(=O)O)cc(S(N)(=O)=O)c1Oc1ccccc1 [Bumetanide] | 6.18 |

Among those listed so far, these contain fluorine:

| SMILES | vesicle damage [%] |
| --- | --- |
| C[C@]12C=CC(=O)N[C@@H]1CC[C@@H]1[C@@H]2CC[C@]2(C)[C@@H](C(=O)Nc3cc(C(F)(F)F)ccc3C(F)(F)F)CC[C@@H]12 [Dutasteride] | -5 |
| Cc1nc2n(c(=O)c1CCN1CCC(c3noc4cc(F)ccc34)CC1)CCCC2 [Risperidone] | -4.58 |
| C[C@]12CC[C@@H]3c4ccc(O)cc4C[C@@H](CCCCCCCCC[S+]([O-])CCCC(F)(F)C(F)(F)F)[C@H]3[C@@H]1CC[C@@H]2O (stereo partly drawn) [Fulvestrant] | -0.361 |
